Measurements reported in PubChem BioAssay AID1259254 (NCATS, 2017)
Shown is one part, drawn at random, of about 59,000 deposited reagents. About 1,550 of all reagents (2.6%) were called active. 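G2 share is only a proxy for re-replication; each gene was hit by three separate siRNAs, and active genes were retested.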 Unmarked entries are inactive. Reagents against one gene are numbered here. Further read-outs or replicates are left out here. Not given: the amount of reagent.

Purpose: 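Finding genes that stop cells copying their DNA twice in one cycle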 (primary screen)
Cells: human HCT116 colorectal cancer cells
Reagents: single siRNA against human genes
Time to read-out: 3 days
Measured: 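Nuclei stained with Hoechst and imaged; cell-cycle phase assigned by DNA content; G2 share scaled per plate, non-targeting siRNA 0%, GMNN siRNA 100%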
Scale: G2 robust z-score and G2 cells, % of GMNN control: higher = more G2 cells, more excess DNA replication
Hit rule: 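Active siRNAs have a G2 robust z of 5 or more median absolute deviations over the median, which in these data means about 38% or higher of GMNN control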

AOC1 (amine oxidase copper containing 1) #1 → G2 robust z-score: -1.27; G2 cells, % of GMNN control: -5.98
AOC1 (amine oxidase copper containing 1) #2 → G2 robust z-score: 1.94; G2 cells, % of GMNN control: 16.6
AOC1 (amine oxidase copper containing 1) #3 → G2 robust z-score: 1.85; G2 cells, % of GMNN control: 16
VSTM2B (V-set and transmembrane domain containing 2B) #1 → G2 robust z-score: 1.51; G2 cells, % of GMNN control: 13.6
VSTM2B (V-set and transmembrane domain containing 2B) #2 → G2 robust z-score: -0.778; G2 cells, % of GMNN control: -2.51
VSTM2B (V-set and transmembrane domain containing 2B) #3 → G2 robust z-score: 0.0465; G2 cells, % of GMNN control: 3.29
LOC728147 (retired record) #1 → G2 robust z-score: -0.902; G2 cells, % of GMNN control: -3.38
LOC728147 (retired record) #2 → G2 robust z-score: 0.249; G2 cells, % of GMNN control: 4.72
LOC728147 (retired record) #3 → G2 robust z-score: -0.0573; G2 cells, % of GMNN control: 2.56
DEMA1 (DPM1 ER membrane anchor 1) #1 → G2 robust z-score: 0.807; G2 cells, % of GMNN control: 8.64
DEMA1 (DPM1 ER membrane anchor 1) #2 → G2 robust z-score: 0.238; G2 cells, % of GMNN control: 4.64
DEMA1 (DPM1 ER membrane anchor 1) #3 → G2 robust z-score: 0.173; G2 cells, % of GMNN control: 4.18
